# Measurements: the supplement of paper PMC8728848
# Some of the results follow.
# B1: Pbx1CASH domain (Cryptococcus neoformans) (protein)
# chain: MDETKPLWGNPRADGISLACKDSIVERNVVYDATDGAIVLFGSAGSTVKNNHVYARTRVILGGINLVDYEPWDGDYTNVKVHHNHLYALGRYFKVGIVIGPASWSDDTESVVHSASVTDNEFSGGYWGYGIVVASAKNFEVLRNKVIWDGEQGVARFSGVPGS
# Tests used:
# Test in all cases: glycan array binding signal (z-score within array); higher = stronger binding
# Conditions in all cases: glycan notation: IUPAC condensed, linker removed
# GlcA(b1-3)Gal = target: GlcA(b1-3)Gal
# How it was run: (§1)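 The binding signal is a Z-score computed within each array and averaged over linkers. Arrays of the same protein sequence at different concentrations or buffers were also averaged together. Data originate from 3228 arrays in the Consortium for Functional Glycomics database, kept only where the protein sequence was available.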
# GlcA(b1-3)GlcNAc = target: GlcA(b1-3)GlcNAc
# How it was run: as §1
# GlcA(b1-6)Gal = target: GlcA(b1-6)Gal
# How it was run: as §1
# [1] = target: GlcA3S(b1-3)Gal(b1-4)GlcNAc(b1-2)Man
# How it was run: as §1
# [2] = target: GlcA3S(b1-3)Gal(b1-4)GlcNAc(b1-3)Gal(b1-4)Glc
# How it was run: as §1
# [3] = target: GlcNAc(a1-3)Gal(b1-4)GlcNAc
# How it was run: as §1
# [4] = target: GlcNAc(a1-4)Gal(b1-3)GlcNAc
# How it was run: as §1
# [5] = target: GlcNAc(a1-4)Gal(b1-4)GalNAc
# How it was run: as §1
# [6] = target: GlcNAc(a1-4)Gal(b1-4)GlcNAc
# How it was run: as §1
# [7] = target: GlcNAc(a1-4)Gal(b1-4)GlcNAc(b1-3)Gal(b1-4)Glc
# How it was run: as §1
# [8] = target: GlcNAc(a1-4)Gal(b1-4)GlcNAc(b1-3)Gal(b1-4)GlcNAc
# How it was run: as §1
# [9] = target: GlcNAc(a1-4)Gal(b1-4)GlcNAc(b1-3)Gal(b1-4)GlcNAc(b1-3)Gal(b1-4)GlcNAc
# How it was run: as §1
# [10] = target: GlcNAc(a1-4)Gal(b1-4)GlcNAc(b1-3)Gal(b1-4)[Fuc(a1-3)]GlcNAc(b1-3)Gal(b1-4)[Fuc(a1-3)]GlcNAc
# How it was run: as §1
# [11] = target: GlcNAc(a1-6)Gal(b1-4)GlcNAc
# How it was run: as §1
# [12] = target: GlcNAc(b1-2)Gal(b1-3)GalNAc
# How it was run: as §1
# [13] = target: GlcNAc(b1-2)Man(a1-3)[GlcNAc(b1-2)Man(a1-6)]Man(b1-4)GlcNAc(b1-4)GlcNAc
# How it was run: as §1
# [14] = target: GlcNAc(b1-2)Man(a1-3)[GlcNAc(b1-2)Man(a1-6)]Man(b1-4)GlcNAc(b1-4)[Fuc(a1-6)]GlcNAc
# How it was run: as §1
# [15] = target: GlcNAc(b1-2)Man(a1-3)[GlcNAc(b1-4)][GlcNAc(b1-2)Man(a1-6)]Man(b1-4)GlcNAc(b1-4)GlcNAc
# How it was run: as §1
# [16] = target: GlcNAc(b1-2)Man(a1-3)[GlcNAc(b1-4)][GlcNAc(b1-2)Man(a1-6)]Man(b1-4)GlcNAc(b1-4)[Fuc(a1-6)]GlcNAc
# How it was run: as §1
# [17] = target: GlcNAc(b1-2)[GlcNAc(b1-4)]Man(a1-3)[GlcNAc(b1-2)Man(a1-6)]Man(b1-4)GlcNAc(b1-4)GlcNAc
# How it was run: as §1
# [18] = target: GlcNAc(b1-2)[GlcNAc(b1-4)]Man(a1-3)[GlcNAc(b1-4)][GlcNAc(b1-2)Man(a1-6)]Man(b1-4)GlcNAc(b1-4)GlcNAc
# How it was run: as §1
# [19] = target: GlcNAc(b1-2)[GlcNAc(b1-4)]Man(a1-3)[GlcNAc(b1-4)][GlcNAc(b1-2)[GlcNAc(b1-6)]Man(a1-6)]Man(b1-4)GlcNAc(b1-4)GlcNAc
# How it was run: as §1
# [20] = target: GlcNAc(b1-2)[GlcNAc(b1-4)]Man(a1-3)[GlcNAc(b1-4)][GlcNAc(b1-2)[GlcNAc(b1-6)]Man(a1-6)]Man(b1-4)GlcNAc(b1-4)[Fuc(a1-6)]GlcNAc
# How it was run: as §1
# [21] = target: GlcNAc(b1-2)[GlcNAc(b1-6)]Man(a1-6)[GlcNAc(b1-2)Man(a1-3)]Man(b1-4)GlcNAc(b1-4)GlcNAc
# How it was run: as §1
# [22] = target: GlcNAc(b1-2)[GlcNAc(b1-6)]Man(a1-6)[GlcNAc(b1-2)Man(a1-3)]Man(b1-4)GlcNAc(b1-4)[Fuc(a1-6)]GlcNAc
# How it was run: as §1
# [23] = target: GlcNAc(b1-2)[GlcNAc(b1-6)]Man(a1-6)[GlcNAc(b1-4)][GlcNAc(b1-2)Man(a1-3)]Man(b1-4)GlcNAc(b1-4)GlcNAc
# How it was run: as §1
# GlcNAc(b1-3)Fuc = target: GlcNAc(b1-3)Fuc
# How it was run: as §1
# GlcNAc(b1-3)Gal = target: GlcNAc(b1-3)Gal
# How it was run: as §1
# [24] = target: GlcNAc(b1-3)Gal(b1-3)GalNAc
# How it was run: as §1
# GlcNAc(b1-3)Gal(b1-4)Glc = target: GlcNAc(b1-3)Gal(b1-4)Glc
# How it was run: as §1
# [25] = target: GlcNAc(b1-3)Gal(b1-4)GlcNAc
# How it was run: as §1
# [26] = target: GlcNAc(b1-3)Gal(b1-4)GlcNAc(b1-2)Man(a1-3)[GlcNAc(b1-3)Gal(b1-4)GlcNAc(b1-2)Man(a1-6)]Man(b1-4)GlcNAc(b1-4)GlcNAc
# How it was run: as §1
# [27] = target: GlcNAc(b1-3)Gal(b1-4)GlcNAc(b1-2)Man(a1-3)[GlcNAc(b1-3)Gal(b1-4)GlcNAc(b1-2)Man(a1-6)]Man(b1-4)GlcNAc(b1-4)[Fuc(a1-6)]GlcNAc
# How it was run: as §1
# [28] = target: GlcNAc(b1-3)Gal(b1-4)GlcNAc(b1-2)[GlcNAc(b1-3)Gal(b1-4)GlcNAc(b1-6)]Man(a1-6)[GlcNAc(b1-3)Gal(b1-4)GlcNAc(b1-2)Man(a1-3)]Man(b1-4)GlcNAc(b1-4)GlcNAc
# How it was run: as §1
# [29] = target: GlcNAc(b1-3)Gal(b1-4)GlcNAc(b1-3)Gal(b1-4)GlcNAc
# How it was run: as §1
# [30] = target: GlcNAc(b1-3)Gal(b1-4)GlcNAc(b1-3)Gal(b1-4)GlcNAc(b1-2)Man(a1-3)[GlcNAc(b1-3)Gal(b1-4)GlcNAc(b1-3)Gal(b1-4)GlcNAc(b1-2)Man(a1-6)]Man(b1-4)GlcNAc(b1-4)GlcNAc
# How it was run: as §1
# [31] = target: GlcNAc(b1-3)Gal(b1-4)GlcNAc(b1-3)Gal(b1-4)GlcNAc(b1-2)Man(a1-3)[GlcNAc(b1-3)Gal(b1-4)GlcNAc(b1-3)Gal(b1-4)GlcNAc(b1-2)Man(a1-6)]Man(b1-4)GlcNAc(b1-4)[Fuc(a1-6)]GlcNAc
# How it was run: as §1
# [32] = target: GlcNAc(b1-3)Gal(b1-4)GlcNAc(b1-3)Gal(b1-4)GlcNAc(b1-2)[GlcNAc(b1-3)Gal(b1-4)GlcNAc(b1-3)Gal(b1-4)GlcNAc(b1-6)]Man(a1-6)[GlcNAc(b1-3)Gal(b1-4)GlcNAc(b1-3)Gal(b1-4)GlcNAc(b1-2)Man(a1-3)]Man(b1-4)GlcNAc(b1-4)[Fuc(a1-6)]GlcNAc
# How it was run: as §1
# [33] = target: GlcNAc(b1-3)Gal(b1-4)GlcNAc(b1-3)Gal(b1-4)GlcNAc(b1-3)Gal(b1-4)GlcNAc(b1-2)Man(a1-3)[GlcNAc(b1-3)Gal(b1-4)GlcNAc(b1-3)Gal(b1-4)GlcNAc(b1-3)Gal(b1-4)GlcNAc(b1-2)Man(a1-6)]Man(b1-4)GlcNAc(b1-4)GlcNAc
# How it was run: as §1
# [34] = target: GlcNAc(b1-3)Gal(b1-4)GlcNAc(b1-3)Gal(b1-4)GlcNAc(b1-3)Gal(b1-4)GlcNAc(b1-2)Man(a1-3)[GlcNAc(b1-3)Gal(b1-4)GlcNAc(b1-3)Gal(b1-4)GlcNAc(b1-3)Gal(b1-4)GlcNAc(b1-2)Man(a1-6)]Man(b1-4)GlcNAc(b1-4)[Fuc(a1-6)]GlcNAc
# How it was run: as §1
# [35] = target: GlcNAc(b1-3)Gal(b1-4)GlcNAc(b1-3)Gal(b1-4)GlcNAc(b1-3)Gal(b1-4)GlcNAc(b1-2)[GlcNAc(b1-3)Gal(b1-4)GlcNAc(b1-3)Gal(b1-4)GlcNAc(b1-3)Gal(b1-4)GlcNAc(b1-6)]Man(a1-6)[GlcNAc(b1-3)Gal(b1-4)GlcNAc(b1-3)Gal(b1-4)GlcNAc(b1-3)Gal(b1-4)GlcNAc(b1-2)Man(a1-3)]Man(b1-4)GlcNAc(b1-4)[Fuc(a1-6)]GlcNAc
# How it was run: as §1
# [36] = target: GlcNAc(b1-3)Gal(b1-4)GlcNAc(b1-3)Gal(b1-4)GlcNAc(b1-3)Gal(b1-4)GlcNAc(b1-3)Gal(b1-4)GlcNAc(b1-2)Man(a1-3)[GlcNAc(b1-3)Gal(b1-4)GlcNAc(b1-3)Gal(b1-4)GlcNAc(b1-3)Gal(b1-4)GlcNAc(b1-3)Gal(b1-4)GlcNAc(b1-2)Man(a1-6)]Man(b1-4)GlcNAc(b1-4)GlcNAc
# How it was run: as §1
# [37] = target: GlcNAc(b1-3)Gal(b1-4)GlcNAc(b1-3)Gal(b1-4)GlcNAc(b1-3)Gal(b1-4)GlcNAc(b1-3)Gal(b1-4)GlcNAc(b1-2)Man(a1-3)[GlcNAc(b1-3)Gal(b1-4)GlcNAc(b1-3)Gal(b1-4)GlcNAc(b1-3)Gal(b1-4)GlcNAc(b1-3)Gal(b1-4)GlcNAc(b1-2)Man(a1-6)]Man(b1-4)GlcNAc(b1-4)[Fuc(a1-6)]GlcNAc
# How it was run: as §1
# [38] = target: GlcNAc(b1-3)Gal(b1-4)GlcNAc(b1-3)Gal(b1-4)GlcNAc(b1-3)Gal(b1-4)GlcNAc(b1-3)Gal(b1-4)GlcNAc(b1-2)[GlcNAc(b1-3)Gal(b1-4)GlcNAc(b1-3)Gal(b1-4)GlcNAc(b1-3)Gal(b1-4)GlcNAc(b1-3)Gal(b1-4)GlcNAc(b1-6)]Man(a1-6)[GlcNAc(b1-3)Gal(b1-4)GlcNAc(b1-3)Gal(b1-4)GlcNAc(b1-3)Gal(b1-4)GlcNAc(b1-3)Gal(b1-4)GlcNAc(b1-2)Man(a1-3)]Man(b1-4)GlcNAc(b1-4)[Fuc(a1-6)]GlcNAc
# How it was run: as §1
# [39] = target: GlcNAc(b1-3)Gal(b1-4)GlcNAc(b1-3)Gal(b1-4)GlcNAc(b1-3)GalNAc
# How it was run: as §1
binder,measurement,setting,value
B1,glycan array binding signal (z-score),GlcA(b1-3)Gal,-0.429
same,glycan array binding signal (z-score),GlcA(b1-3)GlcNAc,-0.194
same,glycan array binding signal (z-score),GlcA(b1-6)Gal,-0.6
same,glycan array binding signal (z-score),[1],-0.689
same,glycan array binding signal (z-score),[2],1.35
same,glycan array binding signal (z-score),[3],-0.585
same,glycan array binding signal (z-score),[4],-0.187
same,glycan array binding signal (z-score),[5],0.311
same,glycan array binding signal (z-score),[6],-0.512
same,glycan array binding signal (z-score),[7],0.223
same,glycan array binding signal (z-score),[8],0.597
same,glycan array binding signal (z-score),[9],0.136
same,glycan array binding signal (z-score),[10],1.21
same,glycan array binding signal (z-score),[11],-0.894
same,glycan array binding signal (z-score),[12],-0.202
same,glycan array binding signal (z-score),[13],0.233
same,glycan array binding signal (z-score),[14],1.83
same,glycan array binding signal (z-score),[15],0.705
same,glycan array binding signal (z-score),[16],-0.273
same,glycan array binding signal (z-score),[17],-0.257
same,glycan array binding signal (z-score),[18],-0.27
same,glycan array binding signal (z-score),[19],0.795
same,glycan array binding signal (z-score),[20],-0.891
same,glycan array binding signal (z-score),[21],-0.525
same,glycan array binding signal (z-score),[22],0.051
same,glycan array binding signal (z-score),[23],-0.525
same,glycan array binding signal (z-score),GlcNAc(b1-3)Fuc,-0.922
same,glycan array binding signal (z-score),GlcNAc(b1-3)Gal,-0.862
same,glycan array binding signal (z-score),[24],-0.938
same,glycan array binding signal (z-score),GlcNAc(b1-3)Gal(b1-4)Glc,-0.526
same,glycan array binding signal (z-score),[25],-0.85
same,glycan array binding signal (z-score),[26],-0.514
same,glycan array binding signal (z-score),[27],0.751
same,glycan array binding signal (z-score),[28],0.933
same,glycan array binding signal (z-score),[29],-0.356
same,glycan array binding signal (z-score),[30],4.67
same,glycan array binding signal (z-score),[31],1.02
same,glycan array binding signal (z-score),[32],0.023
same,glycan array binding signal (z-score),[33],-0.818
same,glycan array binding signal (z-score),[34],0.64
same,glycan array binding signal (z-score),[35],-0.776
same,glycan array binding signal (z-score),[36],0.389
same,glycan array binding signal (z-score),[37],-0.364
same,glycan array binding signal (z-score),[38],-0.634
same,glycan array binding signal (z-score),[39],2.04

# 12 consecutive entries already listed:
binder,measurement,setting,value
B1,glycan array binding signal (z-score),[11],-0.894
same,glycan array binding signal (z-score),[12],-0.202
same,glycan array binding signal (z-score),[13],0.233
same,glycan array binding signal (z-score),[14],1.83
same,glycan array binding signal (z-score),[15],0.705
same,glycan array binding signal (z-score),[16],-0.273
same,glycan array binding signal (z-score),[17],-0.257
same,glycan array binding signal (z-score),[18],-0.27
same,glycan array binding signal (z-score),[19],0.795
same,glycan array binding signal (z-score),[20],-0.891
same,glycan array binding signal (z-score),[21],-0.525
same,glycan array binding signal (z-score),[22],0.051
